According to PubChem BioAssay AID1508600 (Functional Genomics Laboratory (NCATS/FGL), 2020):
The whole screen tested about 53,000 sequences, of which about 3,700 (7%) were called active.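 The calls were made as follows: active = gene knockdowns whose robust z-score for IL-1 alpha signal is at least 2 or at most -2, so actives lie on both sides; inactive = the rest.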 This is one part of the list.

Assay: Components of the Cytosolic LPS Sensing Pathway: Gene Identification via Genome-wide siRNA Screen;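 also: robust z of the log signal after scaling to non-targeting control siRNA wells of the plate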
Settings: RAW264.7 macrophages, IL-1a HTRF, actives lie on both sides, screened at 100 nM (by protocol), cells primed 5 h with Pam3CSK4 first
How it was run: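 Cells (RAW264.7, 1×10^4 per well) were transfected with siRNA at 100 nM and cultured 48h at 37 degrees C. Pam3CSK4 was added for 5 hours; LipidA transfection followed for 24 hour. IL-1a was then measured by HTRF.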

Row | Sequence | z-score
1 | GGCCCUCUAUGAGUAUCUGTT against Olfr536 | inactive: -1.02
2 | CCCGUCACCACUUAACAUGTT against Rasal2 | inactive: 0.699
3 | GGACCGAAACUCAGGCUGATT against Adra1d | inactive: -0.49
4 | CCCUUUUGUGACCUUGUUATT against Scoc | inactive: -0.22
5 | GGACAUCCAUCAGUACAGGTT against Hras | inactive: 0.812
6 | CCCUGUCAAAAAAGUGGCCTT against Olfr1151 | inactive: 1.4
7 | GGAAUUAAUGACCAAGUUATT against A830018L16Rik | inactive: 0.0225
8 | GGCCAGUGUAUUUGACCUGTT against Slc22a18 | inactive: -1.24
9 | CCAGAACCCUAGACUUUGCTT against Wfdc6b | inactive: 0.362
10 | CCGUGGGACCAGAGUUAAATT against Cd300lb | inactive: 0.691
11 | GGAAGAAGGCUGGUACUUATT against Lao1 | inactive: -1.05
12 | GGUGAUCACUAACCUACUATT against Fancm | inactive: -0.316
13 | GGUUUAUUCAUUAUUCUCCTT against 8030462N17Rik | inactive: -1.57
14 | CCUAUGGCCAUGAUCCUUATT against Olfr575 | inactive: 1.29
15 | GGUUUUAGAAUGUCUUUCATT against Rida | inactive: -0.00853
16 | GACUAUCUCAUUCUCAGCUTT against Olfr1238 | inactive: -0.358
17 | GGCACUAGAAGAGAGGUACTT against 4932416K20Rik | inactive: 0.768
18 | GCAACCUGUCCCUUCUUGATT against Olfr225 | inactive: 1.53
19 | GAAGCACAACCUCGGCUUUTT against AY074887 | inactive: 0.448
20 | GCUGGAUUUGACAUUAUCGTT against Olfr151 | inactive: 0.509
21 | CCUUAAGUGUGUCAGGGCATT against Sdhaf4 | inactive: -1.99
22 | GGUGUGUUAAUUUCUAGAUTT against Frs2 | inactive: 0.945
23 | GGUUGAAGCAGAAGAUAAUTT against Asnsd1 | active: -2.2
24 | GCCAAGUUCAUCAAGAAGCTT against Dapk3 | inactive: 0.0472
25 | GGGUACGUGAAGAAACUUCTT against Meig1 | active: -2.23
26 | CGAAAUUCGGAAUGUAUAUTT against Tnp1 | inactive: -1.85
27 | GGUGAUGCUGGAAUCUUCCTT against Svop | inactive: 0.216

A different layout for some results above:

| Row | Sequence | z-score |
| --- | --- | --- |
| 5 | GGACAUCCAUCAGUACAGGTT against Hras | inactive: 0.812 |
| 7 | GGAAUUAAUGACCAAGUUATT against A830018L16Rik | inactive: 0.0225 |
| 11 | GGAAGAAGGCUGGUACUUATT against Lao1 | inactive: -1.05 |
| 12 | GGUGAUCACUAACCUACUATT against Fancm | inactive: -0.316 |
| 13 | GGUUUAUUCAUUAUUCUCCTT against 8030462N17Rik | inactive: -1.57 |
| 16 | GACUAUCUCAUUCUCAGCUTT against Olfr1238 | inactive: -0.358 |
| 17 | GGCACUAGAAGAGAGGUACTT against 4932416K20Rik | inactive: 0.768 |
| 19 | GAAGCACAACCUCGGCUUUTT against AY074887 | inactive: 0.448 |
| 20 | GCUGGAUUUGACAUUAUCGTT against Olfr151 | inactive: 0.509 |
| 21 | CCUUAAGUGUGUCAGGGCATT against Sdhaf4 | inactive: -1.99 |
| 23 | GGUUGAAGCAGAAGAUAAUTT against Asnsd1 | active: -2.2 |
| 24 | GCCAAGUUCAUCAAGAAGCTT against Dapk3 | inactive: 0.0472 |

Remaining list, next part:

Row | Sequence | z-score
28 | UUGUCAUUCACUUGAUGAATT against H2bu2 | inactive: 0.238
29 | GGAUUACCUGAACAGCGAUTT against Zfhx3 | inactive: -0.738
30 | GGCAUUAUCACAUAAAGGATT against Tec | inactive: 0.0984
31 | GCAGUGAACCGUAUUGGACTT against Ncam1 | inactive: 0.406
32 | CCGUCACUUUUAACCAUGUTT against Speg | active: 4.19
33 | GGGCUCUUCUCAUUCUAUATT against Olfr551 | inactive: -0.232
34 | GGAUGUUUUCCCGACAAGATT against Angptl1 | inactive: -1.27
35 | GGGAAAGCCAUCCUUCACUTT against Erich5 | inactive: 0.288
36 | CCAGACUGAGAAGAUAUGATT against Meox2 | inactive: -0.146
37 | GCUCCAGAAUAUAUUGUUCTT against Arfgap3 | inactive: 1.39
38 | GCAGGCCUUGUAUAGUGUGTT against Ccar1 | inactive: -0.63
39 | GCCAAGCAUAAUCUAAUGATT against Prpf4b | inactive: 0.851
40 | GGUAGAGAGCUCAACAGGGTT against Klrb1c | inactive: 0.287
41 | GCAUUACUAUGACCGAUCCTT against Magea4 | inactive: 0.239
42 | GCGAUGGAUUGUAAAAUUATT against Defb1 | inactive: -0.0394
43 | GGCCAUUUAUCCAUGGUUGTT against Zdhhc17 | inactive: 0.954
44 | CCACUCCAAGACCUACUCCTT against Large1 | inactive: 0.638
45 | GGAAGUCUAUGGUUUUUAGTT against Csnk2b | active: 2.97
46 | GCCAGAAAGCGUGUCAGAUTT against Hddc2 | inactive: 1.65
47 | GGCUUUUAAGGUCAUCCCUTT against Bysl | inactive: -0.737
48 | GGGAAUUUUGGAAGAGUCUTT against F630003A18Rik | active: -3.23
49 | GGAGCUCCACCCUUAUUCATT against Zfp113 | inactive: 0.775
50 | GGUAUUCGAGACCUGAUUATT against Frem2 | inactive: -1.28
51 | CCUAGAAUUCAUGGAAAAUTT against Olfr1196 | inactive: -1.02
52 | GGGUGACAUGAUUUUAACUTT against Fbh1 | inactive: -0.727
53 | GGACAGGCAGAGUUUACAGTT against Rit1 | inactive: -1.58
54 | GCUGACCUUCAUUCAUAUATT against Vmn1r27 | active: -2.06
